Measurements published in PMC8396335.

Assays:
[1] = target: T1, AtCOI1 (Arabidopsis thaliana) (UniProt O04197); experiment: two-hybrid; yeast AH109; McJAZ as prey (pGADT7, AD), McCOI1a or AtCOI1 as bait (pGBKT7, BD); selection medium SD/-Leu/-Trp/-His/-Ade (QDO) containing 35 μM coronatine (COR); 30 °C, 4 days
T1 sequence: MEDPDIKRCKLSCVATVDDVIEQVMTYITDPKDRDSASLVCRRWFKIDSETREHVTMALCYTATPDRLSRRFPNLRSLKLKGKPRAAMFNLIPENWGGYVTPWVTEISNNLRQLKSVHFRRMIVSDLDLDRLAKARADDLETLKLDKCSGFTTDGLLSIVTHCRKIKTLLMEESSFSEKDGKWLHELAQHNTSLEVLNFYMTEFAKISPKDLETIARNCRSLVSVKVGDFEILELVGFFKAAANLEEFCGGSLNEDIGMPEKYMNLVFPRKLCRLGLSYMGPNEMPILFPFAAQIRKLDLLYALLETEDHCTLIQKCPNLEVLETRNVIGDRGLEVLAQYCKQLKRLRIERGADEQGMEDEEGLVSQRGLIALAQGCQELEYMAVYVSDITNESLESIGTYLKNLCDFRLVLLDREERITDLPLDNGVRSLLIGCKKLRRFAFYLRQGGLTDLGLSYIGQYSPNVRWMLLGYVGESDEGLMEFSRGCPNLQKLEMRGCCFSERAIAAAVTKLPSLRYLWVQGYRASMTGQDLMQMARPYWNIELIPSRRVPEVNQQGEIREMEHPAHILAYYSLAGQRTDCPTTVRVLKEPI

[2] = target: T1, AtCOI1 (Arabidopsis thaliana); experiment: two-hybrid; yeast AH109; McJAZ as prey (pGADT7, AD), McCOI1a or AtCOI1 as bait (pGBKT7, BD); selection medium SD/-Leu/-Trp/-His/-Ade (QDO) plus methanol, without coronatine; 30 °C, 4 days

Row | Substance | binding [1] | binding [2]
1 | McJAZ1 (Mentha canadensis) | no binding | no binding
2 | McJAZ2 (Mentha canadensis) | no binding | no binding
3 | McJAZ3 (Mentha canadensis) | no binding | no binding
4 | McJAZ4 (Mentha canadensis) | no binding | no binding
5 | McJAZ5 (Mentha canadensis) | no binding | no binding
6 | McJAZ6 (Mentha canadensis) | no binding | no binding
7 | McJAZ7 (Mentha canadensis) | no binding | no binding

No constants are given. Whether binding was seen depends on the method and setting.
